Results: PubChem BioAssay AID2685 (National Center for Advancing Translational Sciences (NCATS), 2010)
The list shows a part of the results. These are further read-outs of the screen, such as a control signal, another cell line or another target. No call is given for them. Compounds called inactive in the main read-out are mostly missing here. Words in brackets tell the shape of the fitted curve; partial curves, single points and poor fits give uncertain potencies.

Experiment: qHTS Assay for Lipid Storage Modulators in Drosophila S3 Cells;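 as to cell number change: cells counted by Cell Tracker Red CMTPX staining in the red channel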
Settings: BODIPY lipid droplet fluorescence, 18-24 h; for cell number change: measured here: cell count max response, cells fed with added oleic acid
Procedure, shortened: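 Drosophila S3 cells got compounds at several concentrations plus oleic acid (400 uM solution). Laser-scanning cytometry with 488 nm excitation read lipid droplets at 500-530 nm and cells at 575-640 nm. Percent activity was relative to 20 uM Triacsin C.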

[1] = measured here: lipid fluorescence (Fed channel) AC50, cells fed with added oleic acid
[2] = measured here: cell number channel AC50, cells fed with added oleic acid

SMILES	cell number change [%]	AC50 [1]	AC50 [2]
COc1cc(OC)c(/C=N/n2c(C)nnc2C)c(OC)c1	7.49	14.6 µM [falling, single point]	
O=C(CN1CCOCC1)Nc1c2c(nc3ccccc13)N(Cc1ccccc1)CC2		1.64 µM [rising, partial curve]	
COc1ccc(Cn2c(C)ccc2C)cc1	5.4	0.184 µM [rising, full curve]	
Cc1cccc(Nc2nc(N)c([N+](=O)[O-])c(NCc3ccccc3)n2)c1	-42		29.1 µM [falling, single point]
CCOC(=O)c1ccc(N2C(=O)CC(N3CCC(O)(c4ccc(Br)cc4)CC3)C2=O)cc1 (stereo unspecified)	-7.84		
Nc1nonc1-c1nc2ccccc2n1CC(=O)N/N=C\c1ccc(-c2ccc(Cl)cc2)o1	-45.4		2.31 µM [falling, full curve, poor fit]
CC1CN(C(=O)/C(C#N)=C2\N=C(NC(=O)c3ccccc3Cl)c3ccccc32)CC(C)O1 (stereo unspecified)	18.7	29.1 µM [rising, single point]	
Cn1c(=O)[nH]c(=O)c2c1nc(CN1CCN(c3ccc(F)cc3)CC1)n2CCc1ccccc1	14.8	16.4 µM [rising, partial curve, poor fit]	
CCN(CC)C(=O)c1cccc(NC(=O)CC23CC4CC(CC(C4)C2)C3)c1		4.11 µM [falling, partial curve]	
NS(=O)(=O)c1ccc(CNC(=O)c2scc3c2CCCC3)cc1	-31.1		14.6 µM [falling, single point]
CCCS(=O)(=O)N1CCN(c2ccccc2F)CC1			0.58 µM [falling, single point]
COc1ccccc1NC(=O)CCN1C(=O)/C(=C/c2cc(OC)c(OC)c(OC)c2)SC1=S	2.55	29.1 µM [falling, single point]	
CC(C)N(Cc1nc(-c2ccccc2)no1)C(=O)c1ccc(Br)o1	-5.95	0.731 µM [rising, full curve]	
Cc1c(OCC(=O)N(C)C)ccc2c3c(c(=O)oc12)CCCCC3	104	29.1 µM [rising, partial curve]	29.1 µM [rising, single point]
CC(C)(C)c1ccc(C(=O)NNC(=O)Cc2ccccc2)cc1	48.3	0.651 µM [rising, single point]	0.0259 µM [rising, full curve, poor fit]
O=C(Nc1ccc2c(c1)OCO2)c1ccccc1SCC(=O)N1CCCC1	-3.27		
CCOC(=O)CSc1nc(=O)n2ccc(C)cc2n1	16.5	0.00461 µM [rising, full curve, poor fit]	0.00461 µM [rising, full curve, poor fit]
COc1ccc(NC(=O)c2[nH]ncc2[N+](=O)[O-])cc1	19.9		
Cc1ccc(-c2ccnc3nc(-n4cccc4)nn23)o1	14.2		0.58 µM [rising, full curve, poor fit]
CC(C)(C)c1ccc(-n2ncc3c2CCCC3NC(=O)CN2CCOC2=O)cc1 (stereo unspecified)	-42.6	10.3 µM [falling, partial curve]	29.1 µM [falling, single point]

3 entries from above in another layout:
Cc1cccc(Nc2nc(N)c([N+](=O)[O-])c(NCc3ccccc3)n2)c1
  cell number change [%]: -42
  AC50 [2]: 29.1 µM [falling, single point]
Nc1nonc1-c1nc2ccccc2n1CC(=O)N/N=C\c1ccc(-c2ccc(Cl)cc2)o1
  cell number change [%]: -45.4
  AC50 [2]: 2.31 µM [falling, full curve, poor fit]
CCN(CC)C(=O)c1cccc(NC(=O)CC23CC4CC(CC(C4)C2)C3)c1
  AC50 [1]: 4.11 µM [falling, partial curve]

(next part)

SMILES	cell number change [%]	AC50 [1]	AC50 [2]
COc1ccc(-c2nnn(CCC(=O)O)n2)cc1	5.77	1.03 µM [falling, full curve, poor fit]	
CC(C)N(CCCNC(=O)C1CCN(C(=O)c2cc3sccc3n2C)CC1)Cc1ccccc1	14.7	29.1 µM [rising, partial curve]	
COc1ccc(S(=O)(=O)NCc2cccs2)cc1	-87.6		3.66 µM [falling, full curve]
O=c1cc[nH]c(=O)[nH]1	-21.7	0.82 µM [falling, full curve, poor fit]	
CCOc1ccc2nc(/N=C/c3nc(-c4ccccc4)oc3O)sc2c1			6.51 µM [rising, single point]
O=C(Nc1ccc(S(=O)(=O)N2CCCCC2)cc1)c1ccc(CN2CCOCC2)cc1	-21.2	16.4 µM [falling, partial curve]	
O=C(CC(=O)c1ccccc1)Nc1ccc2c(c1)OCCO2	-21.7		
Cc1sc2ncnc(N3CCN(Cc4ccccc4)CC3)c2c1-c1ccc(F)cc1	19.2	0.651 µM [rising, partial curve, poor fit]	5.8 µM [rising, single point]
Cn1ccnc1SCC(=O)Nc1cc(S(=O)(=O)N2CCOCC2)ccc1Cl	6.35	0.326 µM [rising, full curve]	
Cc1ccc(S(=O)(=O)Nc2cc(C(C(=O)OC(C)C)C(=O)C(F)(F)F)c(O)c3ccccc23)c(C)c1 (stereo unspecified)	-23.8	32.6 µM [falling, single point]	
CC(C)(C)OC(=O)N1CCC[C@H]1c1nnc(SCc2ccc(Cl)cc2)o1	42.7	11.6 µM [rising, partial curve]	7.31 µM [rising, partial curve, poor fit]
N#CC(C#N)=NNc1ccc(S(=O)(=O)N2CCCC2)cc1		11.6 µM [falling, partial curve]	4.61 µM [rising, single point]
Cc1cc(Cl)c(S(=O)(=O)N2CCSCC2)cc1OCC(=O)NC1CCCCC1	-11.6	5.8 µM [rising, single point]	
Cc1cc(C(=O)Nc2cccnc2)cs1	-3.81	0.731 µM [falling, full curve]	0.731 µM [falling, single point]
COc1ccc(NC(=O)c2ccc3c(c2)C(=O)N(CC2CCCO2)C3=O)cc1O (stereo unspecified)		1.84 µM [falling, partial curve]	6.51 µM [falling, single point]
OC(COc1ccc2ccccc2c1)Cn1ccnc1 (stereo unspecified)	12.8		0.651 µM [rising, single point]
CCc1ccc(OCC(=O)Nc2ccc(-c3cc4ccccc4oc3=O)c(OC)c2)cc1	1.02	5.8 µM [rising, partial curve]	
COc1cc(CNc2ccc(S(N)(=O)=O)cc2)ccc1OCC(=O)NC1CCCCC1	-4.91		
Nc1c(N)c2ccccc2oc1=O	33		25.9 µM [rising, single point]
S=c1[nH]c(-c2ccccc2)cn1/N=C/c1cccnc1	17.6	2.91 µM [rising, full curve]	

SMILES	cell number change [%]	AC50 [1]	AC50 [2]
Cc1cc(C)c(-n2c(C)cc(/C=C3/NC(=O)NC3=O)c2C)c(C)c1	-29.9		0.184 µM [falling, full curve, poor fit]
Cc1nc(N2CCC(C)CC2)c2c(C)c(C(=O)Nc3ccccc3C(F)(F)F)sc2n1	-15.2	0.116 µM [falling, full curve]	
COc1ccc(-c2c(-c3ccccc3OC)sc3ccccc23)cc1C=O	20.1	13 µM [rising, single point]	
CCOc1ccc(S(=O)(=O)n2nc(C)c(S(=O)(=O)N3CCOCC3)c2C)cc1	-5.65	1.46 µM [falling, full curve, poor fit]	
Cn1cc(/C=N/NC(=O)c2ccccc2O)c2ccccc21	-25.5	29.1 µM [falling, single point]	
COC(=O)Cc1ccc(NC(=S)N2CCN(C)CC2)cc1	-6.25	29.1 µM [falling, single point]	
CCCCOC(=O)c1[nH]c(C)c(C(=O)OC)c1C	-28.6	2.59 µM [falling, full curve, poor fit]	
COc1ccc(Br)cc1CNc1ccc2[nH]c(=O)[nH]c2c1	-1.06		
C=CCOc1ccc(C=Nc2cccc(Cl)c2)c(O)c1	-0.446	0.651 µM [falling, full curve, poor fit]	
CCOc1cccc(-c2cc(-c3n[nH]c(=S)n3CC)c3ccccc3n2)c1	9.81	0.517 µM [falling, partial curve, poor fit]	
COc1ccc(NC(=O)Cn2nnc(-c3ccccc3F)n2)cc1Cl	27.8	3.26 µM [rising, full curve]	2.59 µM [rising, full curve, poor fit]
CCCc1cc(C(=O)Nc2ccc(C(=O)c3ccc(F)cc3)cc2)n(C)n1	11.8	35.5 µM [falling, single point]	
CCCCSc1cc(C)nc2ncnn12	-18.2		
CC(C)c1ccc(NC(=O)C2CCCN(S(=O)(=O)c3cccnc3)C2)cc1 (stereo unspecified)	13.3	6.51 µM [rising, single point]	
COCc1ccc(-c2c(-c3ccccc3OC)sc3cc4c(cc23)OCO4)cc1	7.7	0.146 µM [rising, single point]	
CCOC(=O)c1c(N)sc(C(O)(C(F)(F)F)C(F)(F)F)c1-c1ccc(OC)cc1OC	-33.2	29.1 µM [falling, single point]	18.4 µM [falling, single point]
O=C(Nc1ccc(F)cc1)Nc1cnccn1			6.31 µM [falling, single point]
COC(=O)c1cccc(S(=O)(=O)N2CCC(NC(=O)Nc3cccc(F)c3)CC2)c1	-19.1		
COc1cc(NC(=O)C2CC(c3cccc(Br)c3)=NO2)cc(OC)c1OC (stereo unspecified)	8.07	2.06 µM [rising, partial curve, poor fit]	
CCOC(=O)CNC(=O)c1ccc(C#CC2(O)CCCCC2)cc1		6.51 µM [rising, single point]	6.51 µM [rising, single point]
